PubChem BioAssay AID743121 – NCATS – 2013

Aim: 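Genes whose silencing strengthens cell killing by camptothecin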 (primary screen)
System: MDA-MB-231 cells, a human breast cancer line
Reagents: single siRNA against human genes, 20 nM siRNA (0.8 pmol per well)
Timing: 120 h (drug added 48 h after transfection, read 72 h later)
Conditions: camptothecin 20 nM (about EC30) for 72 h; vehicle 0.1% DMSO in parallel plates
Measured: 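Cell viability by ATP luminescence (CellTiter-Glo) as % of non-targeting siRNA wells, and the log2 ratio of viability without drug over viability with camptothecin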
Scale: log2 vehicle/camptothecin viability: higher = stronger sensitisation to camptothecin; viability with camptothecin and viability without drug: higher = more viable cells
Active means: 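Active genes have an RSA gene-level p-value below 0.001, computed from the ratios of their separate siRNAs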
The whole screen tested about 26,000 reagents; shown is a random part of them. 167 of all reagents (0.63%) count as active. 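Calls are per gene from RSA p-values that are not deposited; an individual active-marked siRNA can sensitise only weakly.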 The numbers tell different reagents against one gene apart.

gene symbol,reagent,log2 vehicle/camptothecin viability,viability with camptothecin (% of control),viability without drug (% of control),activity call
TRIM69 (tripartite motif containing 69),1,0.344,66.9,84.9,inactive
TRIM69 (tripartite motif containing 69),2,-0.447,27.7,20.3,inactive
TRIM69 (tripartite motif containing 69),3,0.0938,62.9,67.2,inactive
TRIM69 (tripartite motif containing 69),4,-0.0442,48.8,47.4,inactive
PTEN (phosphatase and tensin homolog),1,0.0866,91.8,97.4,inactive
PTEN (phosphatase and tensin homolog),2,0.293,93.8,115,inactive
PTEN (phosphatase and tensin homolog),3,-0.256,67.6,56.6,inactive
PTEN (phosphatase and tensin homolog),4,-0.209,85.2,73.7,inactive
NRIP1 (nuclear receptor interacting protein 1),1,-0.413,90,67.6,inactive
NRIP1 (nuclear receptor interacting protein 1),2,-0.17,114,102,inactive
NRIP1 (nuclear receptor interacting protein 1),3,0.127,83.5,91.1,inactive
NRIP1 (nuclear receptor interacting protein 1),4,-0.103,105,98,inactive
SLC6A11,1,0.0149,75.8,76.6,inactive
SLC6A11,2,-0.0157,103,102,inactive
SLC6A11,3,0.304,68.9,85.1,inactive
SLC6A11,4,0.185,67.1,76.3,inactive
OGFR (opioid growth factor receptor),1,-0.276,75.5,62.3,inactive
OGFR (opioid growth factor receptor),2,-0.53,95.9,66.4,inactive
OGFR (opioid growth factor receptor),3,-0.0442,96.7,93.8,inactive
OGFR (opioid growth factor receptor),4,-0.082,92,86.9,inactive
OGFR (opioid growth factor receptor),5,-0.436,80.4,59.4,inactive
GJB3 (gap junction protein beta 3),1,0.161,77.2,86.3,inactive
GJB3 (gap junction protein beta 3),2,0.176,55.4,62.6,inactive
GJB3 (gap junction protein beta 3),3,0.14,31,34.1,inactive
GJB3 (gap junction protein beta 3),4,-0.165,87.2,77.8,inactive
"RAP2C (RAP2C, member of RAS oncogene family)",1,0.34,71.4,90.3,inactive
"RAP2C (RAP2C, member of RAS oncogene family)",2,-0.176,99.5,88.1,inactive
"RAP2C (RAP2C, member of RAS oncogene family)",3,0.0986,78,83.6,inactive
"RAP2C (RAP2C, member of RAS oncogene family)",4,-0.255,83.6,70,inactive
HMGN2 (high mobility group nucleosomal binding domain 2),1,0.0764,107,112,inactive
HMGN2 (high mobility group nucleosomal binding domain 2),2,-0.153,106,95.3,inactive
HMGN2 (high mobility group nucleosomal binding domain 2),3,-0.0179,74.4,73.5,inactive
HMGN2 (high mobility group nucleosomal binding domain 2),4,-0.359,80.3,62.6,inactive
GPR137C (G protein-coupled receptor 137C),1,0.00372,112,113,inactive
GPR137C (G protein-coupled receptor 137C),2,-0.0857,99.3,93.6,inactive
GPR137C (G protein-coupled receptor 137C),3,-0.108,99.9,92.7,inactive
PLCB3 (phospholipase C beta 3),1,-0.411,107,80.4,inactive
PLCB3 (phospholipase C beta 3),2,-0.246,64,54,inactive
PLCB3 (phospholipase C beta 3),3,0.503,45,63.8,inactive
PLCB3 (phospholipase C beta 3),4,-0.287,104,84.9,inactive
TMPRSS2 (transmembrane serine protease 2),1,-0.293,73.8,60.2,inactive
TMPRSS2 (transmembrane serine protease 2),2,0.148,51.8,57.4,inactive
TMPRSS2 (transmembrane serine protease 2),3,-0.0991,88.9,83,inactive
TMPRSS2 (transmembrane serine protease 2),4,-0.716,83.9,51.1,inactive
ABCB4 (ATP binding cassette subfamily B member 4),1,-0.348,71.9,56.4,inactive
ABCB4 (ATP binding cassette subfamily B member 4),2,-0.412,84,63.1,inactive
ABCB4 (ATP binding cassette subfamily B member 4),3,0.781,10.1,17.3,inactive
KCNG3,1,-0.303,63.7,51.6,inactive
KCNG3,2,0.394,55.2,72.5,inactive
KCNG3,3,0.0847,93,98.6,inactive
KCNG3,4,0.0242,95.6,97.2,inactive
WNT10B (Wnt family member 10B),1,-0.0203,62.4,61.6,inactive
WNT10B (Wnt family member 10B),2,-0.171,63.4,56.3,inactive
WNT10B (Wnt family member 10B),3,-0.462,41,29.7,inactive
WNT10B (Wnt family member 10B),4,0.000901,35,35,inactive
MED7 (mediator complex subunit 7),1,0.209,75.4,87.1,inactive
MED7 (mediator complex subunit 7),2,-0.392,88.9,67.7,inactive
MED7 (mediator complex subunit 7),3,-0.188,21.4,18.7,inactive
MED7 (mediator complex subunit 7),4,-0.0367,85.6,83.4,inactive
FIRRM (FIGNL1 interacting regulator of recombination and mitosis),1,-0.126,103,94.7,inactive
FIRRM (FIGNL1 interacting regulator of recombination and mitosis),2,-0.118,63.2,58.2,inactive
FIRRM (FIGNL1 interacting regulator of recombination and mitosis),3,-0.574,53.9,36.2,inactive
FIRRM (FIGNL1 interacting regulator of recombination and mitosis),4,-0.192,92.3,80.8,inactive
ADGRE2 (adhesion G protein-coupled receptor E2),1,-0.296,97.5,79.4,inactive
ADGRE2 (adhesion G protein-coupled receptor E2),2,-0.0716,86,81.9,inactive
ADGRE2 (adhesion G protein-coupled receptor E2),3,0.061,36.3,37.9,inactive
ADGRE2 (adhesion G protein-coupled receptor E2),4,-0.331,84.8,67.4,inactive
PPP4R1 (protein phosphatase 4 regulatory subunit 1),1,-0.276,56.9,46.9,inactive
PPP4R1 (protein phosphatase 4 regulatory subunit 1),2,-0.353,49.9,39.1,inactive
PPP4R1 (protein phosphatase 4 regulatory subunit 1),3,0.0494,94.2,97.5,inactive
PPP4R1 (protein phosphatase 4 regulatory subunit 1),4,-0.436,96.1,71,inactive

Laid out differently: 10 of the entries above
| gene symbol | reagent | log2 vehicle/camptothecin viability | viability with camptothecin (% of control) | viability without drug (% of control) | activity call |
| --- | --- | --- | --- | --- | --- |
| KCNG3 | 4 | 0.0242 | 95.6 | 97.2 | inactive |
| WNT10B (Wnt family member 10B) | 1 | -0.0203 | 62.4 | 61.6 | inactive |
| WNT10B (Wnt family member 10B) | 2 | -0.171 | 63.4 | 56.3 | inactive |
| WNT10B (Wnt family member 10B) | 3 | -0.462 | 41 | 29.7 | inactive |
| WNT10B (Wnt family member 10B) | 4 | 0.000901 | 35 | 35 | inactive |
| MED7 (mediator complex subunit 7) | 1 | 0.209 | 75.4 | 87.1 | inactive |
| MED7 (mediator complex subunit 7) | 2 | -0.392 | 88.9 | 67.7 | inactive |
| MED7 (mediator complex subunit 7) | 3 | -0.188 | 21.4 | 18.7 | inactive |
| MED7 (mediator complex subunit 7) | 4 | -0.0367 | 85.6 | 83.4 | inactive |
| FIRRM (FIGNL1 interacting regulator of recombination and mitosis) | 1 | -0.126 | 103 | 94.7 | inactive |
